Source: PubChem BioAssay AID1508597 (Cure First, 2020)

Assay: 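Survival screen with siRNA in ovarian cancer cells derived from patients, with or without rucaparib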 (primary screen)
Cell system: human ovarian carcinoma lines grown from tumours: OCI-P5x (papillary serous) and OCI-C5x (clear cell)
Reagent: siRNA pool against human genes, 1.25 pmol siRNA per well
Timing: 72 h or 96 h, depending on the cell culture
Conditions: rucaparib 20 µM (about IC30) or vehicle, present until read-out
Rucaparib or vehicle: Vehicle
Cell line: OCI-C5x (clear cell)
Detection: 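Luminescent ATP-based viability assay read 72 or 96 h after transfection, depending on culture, given as normalised percent viability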
Scale: viability, normalised: higher = more viable cells remaining
Call rule: 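a well counts as a hit if its normalised viability is under 80 percent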
Meaning of the calls: active = viability under 80%; inactive = viability 80% or more
This is a random part of the about 2,100 reagents, in one setting of the screen. 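Calls flag viability under 80% in either arm, not effects specific to rucaparib; the reference for percent is not stated.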 A reagent listed more than once was tested more than once; the source does not tell the runs apart. Reagent sequences are not shown. Not stated in the record: the 100% reference.

| Target gene | technical replicate | viability, normalised (%) | outcome |
| --- | --- | --- | --- |
| PRKCQ (GeneID 5588) | 1 | 72.1 | active |
| PRKCQ (GeneID 5588) | 2 | 96.6 | inactive |
| PRKCQ (GeneID 5588) | 3 | 67.4 | active |
| MBD3 (GeneID 53615) | 1 | 29.4 | active |
| MBD3 (GeneID 53615) | 2 | 26.5 | active |
| MBD3 (GeneID 53615) | 3 | 27.2 | active |
| DDX3X (GeneID 1654) | 1 | 29.3 | active |
| DDX3X (GeneID 1654) | 1 | 42.6 | active |
| DDX3X (GeneID 1654) | 2 | 34.5 | active |
| DDX3X (GeneID 1654) | 2 | 36.3 | active |
| DDX3X (GeneID 1654) | 3 | 34.7 | active |
| DDX3X (GeneID 1654) | 3 | 38.4 | active |
| HMGN2 (GeneID 3151) | 1 | 74.6 | active |
| HMGN2 (GeneID 3151) | 2 | 65.3 | active |
| HMGN2 (GeneID 3151) | 3 | 62.9 | active |
| HUS1 (GeneID 3364) | 1 | 70.6 | active |
| HUS1 (GeneID 3364) | 2 | 67.5 | active |
| HUS1 (GeneID 3364) | 3 | 56.7 | active |
| DDX20 (GeneID 11218) | 1 | 36.8 | active |
| DDX20 (GeneID 11218) | 2 | 59.2 | active |
| DDX20 (GeneID 11218) | 3 | 50.9 | active |
| CLDN12 (GeneID 9069) | 1 | 27 | active |
| CLDN12 (GeneID 9069) | 2 | 51.7 | active |
| CLDN12 (GeneID 9069) | 3 | 51.8 | active |

2 entries from above, reformatted.
Target gene,technical replicate,"viability, normalised (%)",outcome
PRKCQ (GeneID 5588),2,96.6,inactive
PRKCQ (GeneID 5588),3,67.4,active
